Measurements taken from publication doi:10.1101/2025.05.21.655143.
Results are given in words; binding and its absence hold for the method and conditions named. Binding seen in cells or lysates may run through a third protein. Some entries that bind do so weakly or less than the wild type.

Chains of the proteins cited; added tags and fusions are not shown. Lines headed by an entry give the natural chain unless they say otherwise; changes in a name come on top. A line that says so, or that is headed by a name, gives the form on record, which may keep a tag or linker.
Halo-SPEN-V5 (Q62504, form named): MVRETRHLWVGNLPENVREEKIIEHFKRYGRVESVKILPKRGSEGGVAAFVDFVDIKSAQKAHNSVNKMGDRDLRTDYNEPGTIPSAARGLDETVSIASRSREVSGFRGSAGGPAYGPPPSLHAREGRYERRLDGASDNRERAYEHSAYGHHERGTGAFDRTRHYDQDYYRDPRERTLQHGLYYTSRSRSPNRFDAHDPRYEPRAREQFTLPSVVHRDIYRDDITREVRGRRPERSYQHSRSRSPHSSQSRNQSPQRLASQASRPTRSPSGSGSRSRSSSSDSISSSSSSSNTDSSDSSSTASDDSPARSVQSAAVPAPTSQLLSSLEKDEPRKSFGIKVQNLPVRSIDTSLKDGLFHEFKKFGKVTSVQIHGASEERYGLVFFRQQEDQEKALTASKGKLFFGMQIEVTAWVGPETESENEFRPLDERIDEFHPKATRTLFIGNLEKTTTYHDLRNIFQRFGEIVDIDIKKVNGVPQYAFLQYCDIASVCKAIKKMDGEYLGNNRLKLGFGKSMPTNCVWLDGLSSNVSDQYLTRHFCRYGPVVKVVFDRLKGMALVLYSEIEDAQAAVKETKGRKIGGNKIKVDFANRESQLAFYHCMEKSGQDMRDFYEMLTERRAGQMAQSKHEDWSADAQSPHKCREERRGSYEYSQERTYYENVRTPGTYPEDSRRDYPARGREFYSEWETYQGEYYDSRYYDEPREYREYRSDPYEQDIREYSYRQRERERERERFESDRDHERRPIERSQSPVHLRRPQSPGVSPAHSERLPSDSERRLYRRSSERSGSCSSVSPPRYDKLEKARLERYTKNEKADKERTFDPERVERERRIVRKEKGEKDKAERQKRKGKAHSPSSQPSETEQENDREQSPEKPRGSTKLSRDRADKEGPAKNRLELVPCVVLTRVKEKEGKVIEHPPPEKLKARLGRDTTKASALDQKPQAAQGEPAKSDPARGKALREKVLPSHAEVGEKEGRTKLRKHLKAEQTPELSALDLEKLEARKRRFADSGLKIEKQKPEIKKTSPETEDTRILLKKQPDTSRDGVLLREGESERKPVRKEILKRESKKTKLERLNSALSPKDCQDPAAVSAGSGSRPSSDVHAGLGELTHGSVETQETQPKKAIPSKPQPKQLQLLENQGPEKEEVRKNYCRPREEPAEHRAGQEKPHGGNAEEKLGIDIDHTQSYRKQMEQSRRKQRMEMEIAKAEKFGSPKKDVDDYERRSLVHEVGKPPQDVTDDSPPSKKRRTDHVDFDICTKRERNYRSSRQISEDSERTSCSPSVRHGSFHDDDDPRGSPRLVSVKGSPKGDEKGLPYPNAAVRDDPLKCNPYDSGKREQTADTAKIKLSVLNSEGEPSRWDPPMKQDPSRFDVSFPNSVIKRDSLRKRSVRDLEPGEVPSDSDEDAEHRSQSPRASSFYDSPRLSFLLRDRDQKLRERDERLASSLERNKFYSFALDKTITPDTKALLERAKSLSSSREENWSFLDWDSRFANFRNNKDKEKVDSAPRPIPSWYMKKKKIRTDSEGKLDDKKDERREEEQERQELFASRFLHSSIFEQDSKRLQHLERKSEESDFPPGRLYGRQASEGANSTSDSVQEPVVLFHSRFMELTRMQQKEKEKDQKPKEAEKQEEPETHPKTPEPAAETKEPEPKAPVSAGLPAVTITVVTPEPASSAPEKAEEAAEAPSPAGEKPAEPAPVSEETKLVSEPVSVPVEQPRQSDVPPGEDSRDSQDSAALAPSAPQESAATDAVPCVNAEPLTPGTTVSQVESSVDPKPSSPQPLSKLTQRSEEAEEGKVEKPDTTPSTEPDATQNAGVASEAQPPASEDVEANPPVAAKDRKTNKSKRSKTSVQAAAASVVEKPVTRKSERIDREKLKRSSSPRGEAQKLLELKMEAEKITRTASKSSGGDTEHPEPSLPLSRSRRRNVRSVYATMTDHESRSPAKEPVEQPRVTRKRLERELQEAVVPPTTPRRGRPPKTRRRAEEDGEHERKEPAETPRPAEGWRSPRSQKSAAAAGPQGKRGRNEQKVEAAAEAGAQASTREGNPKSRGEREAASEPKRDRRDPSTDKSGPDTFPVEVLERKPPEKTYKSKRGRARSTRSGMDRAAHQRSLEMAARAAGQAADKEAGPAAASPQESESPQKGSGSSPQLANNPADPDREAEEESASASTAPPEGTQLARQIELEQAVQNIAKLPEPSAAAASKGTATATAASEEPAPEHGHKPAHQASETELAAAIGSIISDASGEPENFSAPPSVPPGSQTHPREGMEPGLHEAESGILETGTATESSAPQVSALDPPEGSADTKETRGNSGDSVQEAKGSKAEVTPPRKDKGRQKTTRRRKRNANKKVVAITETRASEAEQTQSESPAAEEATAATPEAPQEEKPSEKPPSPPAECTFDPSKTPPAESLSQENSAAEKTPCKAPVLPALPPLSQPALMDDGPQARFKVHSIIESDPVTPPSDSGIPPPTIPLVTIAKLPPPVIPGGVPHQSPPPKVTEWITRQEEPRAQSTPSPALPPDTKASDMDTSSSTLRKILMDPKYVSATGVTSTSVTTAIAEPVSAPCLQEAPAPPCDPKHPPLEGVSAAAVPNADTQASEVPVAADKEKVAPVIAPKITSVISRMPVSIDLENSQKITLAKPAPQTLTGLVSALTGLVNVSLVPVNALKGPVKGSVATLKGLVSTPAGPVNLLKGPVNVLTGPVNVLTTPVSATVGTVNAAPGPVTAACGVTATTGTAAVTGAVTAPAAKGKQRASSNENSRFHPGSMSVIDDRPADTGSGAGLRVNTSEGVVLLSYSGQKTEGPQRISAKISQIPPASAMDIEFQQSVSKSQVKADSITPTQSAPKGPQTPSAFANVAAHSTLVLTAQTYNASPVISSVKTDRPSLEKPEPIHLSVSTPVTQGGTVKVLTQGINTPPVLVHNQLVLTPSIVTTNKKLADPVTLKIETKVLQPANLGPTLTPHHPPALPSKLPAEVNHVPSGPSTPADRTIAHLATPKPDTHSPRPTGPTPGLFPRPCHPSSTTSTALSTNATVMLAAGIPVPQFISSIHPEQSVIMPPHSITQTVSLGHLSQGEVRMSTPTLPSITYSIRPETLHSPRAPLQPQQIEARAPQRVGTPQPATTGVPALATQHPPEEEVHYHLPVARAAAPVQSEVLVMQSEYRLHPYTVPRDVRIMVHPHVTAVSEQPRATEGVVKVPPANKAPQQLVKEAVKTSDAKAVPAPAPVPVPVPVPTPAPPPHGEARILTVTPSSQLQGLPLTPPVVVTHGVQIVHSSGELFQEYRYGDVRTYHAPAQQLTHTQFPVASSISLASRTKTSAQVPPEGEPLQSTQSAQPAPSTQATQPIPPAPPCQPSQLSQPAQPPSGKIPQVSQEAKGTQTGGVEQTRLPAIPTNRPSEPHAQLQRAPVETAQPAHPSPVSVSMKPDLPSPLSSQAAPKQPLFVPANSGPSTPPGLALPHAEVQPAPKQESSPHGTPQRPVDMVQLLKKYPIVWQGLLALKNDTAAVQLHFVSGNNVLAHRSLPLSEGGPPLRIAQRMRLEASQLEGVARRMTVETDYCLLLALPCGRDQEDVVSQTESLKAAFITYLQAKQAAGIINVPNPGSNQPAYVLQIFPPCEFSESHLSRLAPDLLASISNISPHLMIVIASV
UniProt Q6PDM2: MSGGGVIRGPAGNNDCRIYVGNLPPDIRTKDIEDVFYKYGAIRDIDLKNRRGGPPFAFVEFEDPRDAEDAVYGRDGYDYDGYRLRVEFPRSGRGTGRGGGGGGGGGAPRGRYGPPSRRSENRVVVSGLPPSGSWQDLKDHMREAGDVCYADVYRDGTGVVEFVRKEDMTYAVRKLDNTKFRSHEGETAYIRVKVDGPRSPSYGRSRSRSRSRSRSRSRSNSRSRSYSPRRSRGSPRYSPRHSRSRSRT

Biological target: Halo-SPEN-V5 (mouse) (UniProt Q62504)
Assay: co-IP

Substance: SRSF1 (from UniProt Q6PDM2 1-248)
- binding: binds
